{
  "source": "patent US20200330400A1",
  "about": "“METHODS FOR THE TREATMENT OF CANCER USING COENZYME Q10 AND FATTY ACID METABOLISM INHIBITORS” (Berg LLC, priority 2016, published 2020)",
  "test_system": "MDA-MB231 cells",
  "assay": "Coenzyme Q10 levels in MDA-MB231 cells treated with Coenzyme Q10",
  "assay_type": "cell-based, human",
  "conditions": "24 and 48 hours after treatment",
  "data": [
    {"smiles": "COC1=C(OC)C(=O)C(C/C=C(\\C)CC/C=C(\\C)CC/C=C(\\C)CC/C=C(\\C)CC/C=C(\\C)CC/C=C(\\C)CC/C=C(\\C)CC/C=C(\\C)CC/C=C(\\C)CCC=C(C)C)=C(C)C1=O", "note": "[Coenzyme Q10]", "values": [
      {"measurement": "Ratio of Coenzyme Q10 to endogenous Coenzyme Q9", "value": "significantly increased the ratio of Coenzyme Q10 to endogenous Coenzyme Q9"}
    ]}
  ]
}
